Source: article PMC5446775, “Interactions of 172 plant extracts with human organic anion transporter 1 (SLC22A6) and 3 (SLC22A8): a study on herb-drug interactions” (PeerJ, 2017)
“And” between values parts separate entries of the source, which are not always exact repeats. Equal entries are not always repeated.

Test: Pharmacokinetics of furosemide in rats with and without Juncus effusus extract
Assay type: in vivo
Conditions: for plasma concentration of FS, Figure 4 raw data (single rats): FS alone

- plasma concentration of FS, Figure 4 raw data (single rats) (10 min): 50.56 (2×) and 61.96 and 54
- plasma concentration of FS, Figure 4 raw data (single rats) (15 min): 53.5826 (2×) and 47.05
- plasma concentration of FS, Figure 4 raw data (single rats) (30 min): 40 (2×) and 41.78 and 72.78 and 37.85
- plasma concentration of FS, Figure 4 raw data (single rats) (60 min): 27.72 (2×) and 29.37 and 50.94 and 37.19
- plasma concentration of FS, Figure 4 raw data (single rats) (90 min): 22.57 (2×) and 26.18 and 43.34 and 30.34
- plasma concentration of FS, Figure 4 raw data (single rats) (120 min): 20.06 (2×) and 23.52 and 24.43 and 35.69
- AUC(0-inf) (male, Sprague-Dawley, rat, plasma, iv, FS 10 mg/kg i.v. alone, rats, read-out: AUC0–inf_obs of FS (converted)): 167 µg·h/mL
Compound: NS(=O)(=O)c1cc(C(=O)O)c(NCc2ccco2)cc1Cl [FS, furosemide]
- plasma concentration of FS, Figure 4 raw data (single rats) (2 min): 85.36 (2×) and 91.84 and 121.6528 and 181.7607
- plasma concentration of FS, Figure 4 raw data (single rats) (5 min): 69.52 (2×) and 70.85 and 112.3429 and 66.57
